The campaign covered roughly 360,000 compounds. About 7,500 (2.1%) were called active. The shares of active, inactive and inconclusive entries below differ from those in the screen. Calls come from the whole dose curve; as a rule, active = well fitted inhibition curve with a large enough effect; inconclusive = small, poorly fitted or top-dose-only effect, or effect the other way; inactive = flat fitted curve, though single readings scatter. A potency beside an inconclusive call is a rough fit, not a confirmed value.
Assay: Nrf2 qHTS screen for inhibitors; note: nearly all actives have a fitted effect of over 60% in size
Conditions: A549 ARE-Fluc reporter, luciferase luminescence, 18-24 h; activity change, negative = inhibition: at 46 µM (top of the series)
Summary of the method: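 In this cell-based qHTS, ARE-driven firefly luciferase in A549 cells reports Nrf2 activity; the luminescent signal after BugLite lysis is the measured value, with a prior CellTiter-Fluor read for cell health.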
% is set by controls: 0 for no effect and ±100 for the full control effect; potency is the fitted concentration of half-maximal effect.

Row | Compound | activity change, negative = inhibition | Potency
1 | Cc1onc(-c2ccccc2Cl)c1C(=O)N1CCCCC1 | inactive: 4.89% | –
2 | COc1ccc(-c2c(C)[nH]n3c(=O)c(Cc4ccccc4)c(C)nc23)cc1OC | – | inconclusive: 18.4 µM [falling, single point]
3 | CNc1nc(NCCOC23CC4CC(CC(C4)C2)C3)nc(OCC(F)(F)F)n1 | – | inconclusive: 32.6 µM [falling, single point]
4 | CC(=O)N1CCc2c(sc(NC(=O)Cc3ccc(F)cc3)c2C(N)=O)C1 | inactive: -14.5% | –
5 | COc1ccc(CN(C)C(=O)/C=C/c2ccc(S(=O)(=O)N3CCCCCC3)cc2)cc1 | – | active: 9.2 µM
6 | COc1ccc(-c2nnc(SCC(=O)c3ccc[nH]3)o2)cc1 | – | inconclusive: 0.92 µM [activator, full curve, poor fit]
7 | Oc1ccc(N2CCN(C(c3cccs3)c3nnnn3CCc3ccccc3)CC2)cc1 (stereo not given) | – | inconclusive: 11.6 µM [falling, partial curve]
8 | Cc1ccc(Cl)cc1N1CCN(S(=O)(=O)c2ccc3c(c2)C(C(C)C)C(=O)N3)CC1 (stereo not given) | – | inconclusive: 16.4 µM [falling, single point]
9 | O=C(COCc1cc(-c2cccs2)on1)NCc1ccc(F)cc1 | inactive: 16.9% | –
10 | CC[C@@H]1CCCCc2ccccc2[C@@H](C(=O)C[C@H](O)CC(C)=O)OC1=O | – | inconclusive: 20.6 µM [activator, single point]
11 | CC(C)OC(=O)NCCOC(=O)Nc1ccc(Cl)c(Cl)c1 | – | inconclusive: 29.1 µM [falling, single point]
12 | O=C(CCS(=O)(=O)c1ccccc1Cl)NC1CCCCCC1 | – | inconclusive: 10.3 µM [activator, partial curve]
13 | COc1cc2ncnc(NCc3cccc(F)c3F)c2cc1OC | – | inconclusive: 4.61 µM [falling, full curve, poor fit]
14 | CC(C)c1ccc(NC(=O)C2CCCN2S(=O)(=O)c2ccc3nc(-c4ccccc4)[nH]c3c2)cc1 (stereo not given) | – | inconclusive: 29.1 µM [falling, single point]
15 | COc1ccc(C(=O)/C=C/c2ccccc2)c(OC)c1 | – | inconclusive: 20.6 µM [falling, partial curve, poor fit]
16 | O=C(N/N=C1\CCc2ccccc21)c1ccc(O)cc1 | – | inconclusive: 9.2 µM [activator, partial curve, poor fit]
17 | CC(C)(C)c1ccc(CSc2nc(N)cc(=O)[nH]2)cc1 | – | inconclusive: 23.1 µM [falling, single point]
18 | CCCc1ccc(NC(=O)C2CCCN(c3cnccn3)C2)cc1 (stereo not given) | – | inactive
19 | CCN(CC)S(=O)(=O)c1cc(C)c(C)cc1OCC(=O)NC1CCCC1 | – | inconclusive: 16.4 µM [falling, partial curve, poor fit]
20 | CCOc1ccc(Nc2nc(C)c(NC(=O)c3cccc(F)c3)c(Nc3ccc(OCC)cc3)n2)cc1 | inactive: -0.996% | –
21 | O=C(Nc1nc2ccccc2[nH]1)C1CCC1 | – | inconclusive: 2.59 µM [activator, full curve, poor fit]
22 | COc1cccc(-c2oc3ccc(C)cc3c(=O)c2O)c1 | inactive: 1.97% | –

Row | Compound | activity change, negative = inhibition | Potency
23 | O=C(/C=C/c1ccncc1)c1ccc2c(c1)OCCO2 | – | inconclusive: 18.4 µM [activator, partial curve, poor fit]
24 | O=C(N/N=C\c1ccc[nH]1)C1COc2ccccc2O1 (stereo not given) | – | inconclusive: 1.03 µM [falling, full curve, poor fit]
25 | CN(C)C(CNS(=O)(=O)c1ccc(Br)cc1)c1cccnc1 (stereo not given) | – | inconclusive: 6.51 µM [activator, single point]
26 | CN1C(=O)C(O)(CC(=O)/C=C/c2ccco2)c2cc(Br)ccc21 (stereo not given) | – | inconclusive: 32.6 µM [falling, partial curve, poor fit]
27 | COc1ccc(-n2cc(-c3ccccc3)c3c(=S)nc[nH]c32)cc1 | – | inconclusive: 25.9 µM [falling, single point]
28 | O=[N+]([O-])c1ccc(OCCn2cnc3ccccc32)cc1 | – | inconclusive: 14.6 µM [falling, single point]
29 | O=C(COC(=O)c1ccc(Cl)nc1)Nc1ncc(Cl)cc1Cl | – | inconclusive: 20.6 µM [activator, partial curve]
30 | O=C(O)c1ccc(Nc2nc(-c3ccc([N+](=O)[O-])cc3)nc3ccccc23)cc1 | – | inconclusive: 13 µM [falling, partial curve, poor fit]
31 | Cc1ccc(S(=O)(=O)Nc2ccccc2CNc2ncc(Br)cc2Br)cc1 | – | inconclusive: 20.6 µM [falling, single point]
32 | COc1cccc(CNC(=O)COc2cc(O)c3c(c2)OC(C)(C)CC3=O)c1 | – | inconclusive: 25.9 µM [activator, partial curve]
33 | COc1ccc(CN2C[C@]3(CO)O[C@@H](CO)C[C@@H]3S2(=O)=O)cc1 | inactive: 5.23% | –
34 | Cc1ccc(C(Sc2ccccc2)C(Cn2cncn2)C(=O)c2ccccc2)cc1 (stereo not given) | – | inconclusive: 29.1 µM [falling, single point]
35 | Cc1cccc(N2CCN(CC(=O)Nc3nccs3)CC2)c1C | – | active: 16.4 µM
36 | CN1CCN(C(c2ccc(C(F)(F)F)cc2)c2ccc3cccnc3c2O)CC1 (stereo not given) | inactive: -29.3% | –
37 | O=C(CCn1nc(-c2ccccc2)ccc1=O)NCCCN1CCCCCC1 | – | inconclusive: 20.6 µM [activator, partial curve, poor fit]
38 | O=C(NC(NC(=S)Nc1ccccc1Cl)C(Cl)(Cl)Cl)c1cccc(Cl)c1 (stereo not given) | – | inconclusive: 29.1 µM [falling, single point]
39 | CCOC(=O)c1c(C)[nH]c(C(=O)OC(C)C(=O)NCc2ccccc2)c1C (stereo not given) | – | inconclusive: 0.461 µM [falling, full curve]
40 | Cc1ccc(C)c(OCc2cc(C(=O)N3CCN(c4ccccc4)CC3)no2)c1 | – | inconclusive: 5.17 µM [activator, single point]
41 | COc1ccc(-n2c(=O)c3sc4ccccc4c3n(CC(=O)NC3CCCCC3)c2=O)cc1 | – | inconclusive: 23.1 µM [falling, single point]
42 | O=C(c1ccc(Cl)c(S(=O)(=O)N2CCc3ccccc32)c1)N1CCN(c2ccccc2O)CC1 | – | inconclusive: 18.4 µM [falling, single point]
43 | CCC(=O)c1ccc(OCC(=O)NNC(=O)c2cc(C)oc2C)cc1 | – | inconclusive: 23.1 µM [activator, single point]
44 | CCOC(=O)c1sc(NC(=O)C2CC(=O)N(c3ccc(C)cc3)C2)nc1C (stereo not given) | – | inconclusive: 29.1 µM [activator, single point]

Pulled by compound from the list above, 5 records:
Row | Compound | activity change, negative = inhibition | Potency
23 | O=C(/C=C/c1ccncc1)c1ccc2c(c1)OCCO2 | – | inconclusive: 18.4 µM [activator, partial curve, poor fit]
38 | O=C(NC(NC(=S)Nc1ccccc1Cl)C(Cl)(Cl)Cl)c1cccc(Cl)c1 (stereo not given) | – | inconclusive: 29.1 µM [falling, single point]
27 | COc1ccc(-n2cc(-c3ccccc3)c3c(=S)nc[nH]c32)cc1 | – | inconclusive: 25.9 µM [falling, single point]
4 | CC(=O)N1CCc2c(sc(NC(=O)Cc3ccc(F)cc3)c2C(N)=O)C1 | inactive: -14.5% | –
11 | CC(C)OC(=O)NCCOC(=O)Nc1ccc(Cl)c(Cl)c1 | – | inconclusive: 29.1 µM [falling, single point]

Carrying on.

Row | Compound | activity change, negative = inhibition | Potency
45 | COc1ccc(/C=C2/CSC/C(=C/c3ccc(OC)c(OC)c3)C2=O)cc1OC | – | active: 5.17 µM
46 | Cc1cc(C)c2nc(NC(=O)c3cc(C)on3)sc2c1 | – | inconclusive: 0.103 µM [activator, full curve]
47 | O=C(Nc1cc(C(F)(F)F)ccc1Cl)c1cnn(-c2ccccc2)c1-n1cccc1 | – | inconclusive: 18.4 µM [falling, partial curve, poor fit]
48 | CCc1ccc(NC(=O)C(CC)Sc2nc3cc4c(cc3c(=O)n2Cc2ccco2)OCO4)cc1 (stereo not given) | – | inconclusive: 29.1 µM [falling, single point]
49 | O=C(Nc1ccccc1Br)c1ccc(OC(=S)N2CCOCC2)cc1 | inactive: 1.36% | –
50 | CCCCNS(=O)(=O)c1ccc2nc(SCC(=O)Nc3ccccc3Cl)[nH]c2c1 | – | inconclusive: 25.9 µM [falling, single point]
51 | Cc1nn(-c2ccc(F)cc2)c(C)c1NS(=O)(=O)c1ccc2ccccc2c1 | – | inconclusive: 29.1 µM [falling, partial curve, poor fit]
52 | CN1CCN(C2=C(Cl)C(=O)N(c3ccc(Cl)c(Cl)c3)C2=O)CC1 | inactive: 10% | –
53 | O=C(Nc1ccccc1C(=O)OCC(=O)N1CCc2ccccc2C1)c1ccco1 | – | inconclusive: 16.4 µM [activator, partial curve, poor fit]
54 | Clc1ccc(-c2nc3cnccn3c2NC2CCCC2)cc1 | – | inconclusive: 23.1 µM [falling, partial curve]
55 | Cc1ccc(CNC(=O)c2ccc(Cl)c(S(=O)(=O)N3CCCCC3)c2)cc1 | – | inconclusive: 18.4 µM [falling, single point]
56 | CCOc1ccc(CCNC(=O)c2cnc3sc(N4CCCCC4)nn3c2=O)cc1 | – | inconclusive: 18.4 µM [activator, single point]
57 | CCOc1ccc(S(=O)(=O)N2CCC(C(=O)NCc3ccccc3CN3CCCC3)CC2)cc1 | inactive: 14.2% | –
58 | Cn1[nH]c(C(F)(F)F)c(C=NCc2ccc(Cl)cc2)c1=O | – | inconclusive: 29.1 µM [falling, partial curve, poor fit]
59 | O=C(Cn1nnc(-c2ccccc2NC(=O)C2CC2)n1)NC1CCCCC1 | – | inconclusive: 7.31 µM [falling, partial curve]
60 | COc1ccc(NC(=O)c2ccc(C)cc2)c[n+]1[O-] | – | inconclusive: 18.4 µM [activator, single point]
61 | COc1ccc(-c2csc(N3CCSCC3)n2)cc1 | – | inconclusive: 20.6 µM [activator, partial curve]
62 | COc1ccc(N2C(=O)CSC23C(=O)N(CC(N)=O)c2ccccc23)cc1 (stereo not given) | – | inconclusive: 2.31 µM [activator, full curve, poor fit]
63 | O=[N+]([O-])c1ccc(COc2cccc(CNc3ccc(Br)cc3)c2)cc1 | – | inconclusive: 20.6 µM [falling, single point]
64 | CCNc1nc(NC(C)(C)C)nc(SC(C(C)=O)C(C)=O)n1 | – | inconclusive: 29.1 µM [falling, single point]
65 | O=C(Nc1ccc(SC(F)F)cc1)c1ccccc1F | – | inconclusive: 5.17 µM [activator, partial curve]

From PubChem BioAssay AID504444 (National Center for Advancing Translational Sciences (NCATS), 2011)
